# Reference: patent publication KR20210143097A
# Chains of the proteins cited; added tags and fusions are not shown. Residues count along the entry.
# UniProt P20273, residues 20-687: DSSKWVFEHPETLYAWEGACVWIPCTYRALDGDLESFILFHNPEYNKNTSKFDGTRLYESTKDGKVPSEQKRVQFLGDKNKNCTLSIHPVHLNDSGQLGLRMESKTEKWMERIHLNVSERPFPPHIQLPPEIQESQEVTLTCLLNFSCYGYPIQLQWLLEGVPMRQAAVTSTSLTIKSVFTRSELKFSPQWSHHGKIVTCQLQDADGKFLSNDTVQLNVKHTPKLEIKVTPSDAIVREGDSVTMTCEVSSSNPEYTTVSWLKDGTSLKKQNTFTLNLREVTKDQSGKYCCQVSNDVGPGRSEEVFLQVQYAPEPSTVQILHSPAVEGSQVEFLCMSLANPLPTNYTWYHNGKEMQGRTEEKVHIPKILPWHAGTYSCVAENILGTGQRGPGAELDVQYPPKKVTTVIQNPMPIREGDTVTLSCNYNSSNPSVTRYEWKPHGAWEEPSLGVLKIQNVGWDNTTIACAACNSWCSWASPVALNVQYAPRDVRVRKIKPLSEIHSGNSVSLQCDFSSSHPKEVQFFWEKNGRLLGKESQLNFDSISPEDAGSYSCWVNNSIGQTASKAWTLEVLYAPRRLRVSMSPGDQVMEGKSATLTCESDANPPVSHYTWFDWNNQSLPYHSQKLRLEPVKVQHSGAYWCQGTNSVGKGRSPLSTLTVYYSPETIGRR
# Results are given in words; binding and its absence hold for the method and conditions named. Some binding calls cover weakened binding; strength is not graded here.
# Molecular target: CD22 (antigen of the hybridoma screening ELISA) (UniProt P20273)
# Test: hybridoma screening ELISA after limiting dilution
row,Binder,binding
1,"3F11 항체 (antibody, V domains shown) VH: EVKLVESGGGLVQPGGSMKLSCVASGFTFSNYWMNWVRQSPEKGLEWVAEIRLKSNNYATHYAESVKGRFTISRDDSKSSVYLQMNNLRAEDTGIYYCTSIYYYGRDYAMDYWGQGTSVTVSS VL: DIVMTQSPAIMSASLGERVTMTCTASSSVSSSYLHWYQQKPGSSPKLWIYSTSNLASGVPARFSGSGSGTSYSLTISSMEAEDAATYYCHQYHRSPYTFGGGTKLEIK",binds
2,"7B5 항체 (antibody, V domains shown) VH: EVQLEESGPGLVAPSQSLSITCTVSGFSLTRYDISWIRQPPGKGLEWLGVMWTGGGTNYNSAFMSRLSISRDNSKSQVFLKMNSLQTDDTAIYYCVRSYYGSAMDYWGQGTSVTVSS VL: DIVMTQSSSYLSVSLGGRVTITCKASDHINNWLAWYQQKPGNAPRLLISGATSLETGVPSRFSGSGSGKDYTLSITSLQTEDVATYYCQQHWSTPFTFGSGTKLEIK",binds
